Reference: PubChem BioAssay AID1259326 (Drosophila RNAi Screening Center, 2017)

Aim: 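RNAi screen for genes modifying zinc chloride toxicity in fly cells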
Cell system: Drosophila S2R+ cells
Reagent: long dsRNA against Drosophila genes
Timing: about 5 days (4 days of RNAi, then 1 day of zinc)
Treatment: zinc chloride added to 15 mM final for one day
Detection: 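Luminescent ATP signal marks surviving cells, read after RNAi for 4 days then 15 mM zinc chloride for 1 day; z-scores are replicate means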
Reading the numbers: averaged z-score: higher = more ATP than other wells, i.e. more surviving cells, after zinc; ATP luminescence: higher = more ATP, i.e. more surviving cells
Hit rule: 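Active if the averaged z-score exceeds 1.5 or falls under -1.5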
In all, the deposit lists 573 reagents; shown is an unselected part. Of all reagents, 39 (6.8%) were called active. 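All actives have raised ATP, meaning more surviving cells; in these data active calls sit at averaged z-scores near 1.5 or above.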 Raw values are not corrected between plates. Unmarked entries are inactive. Not stated in the record: the amount of reagent.

The opening 2 entries, ahead of the listing:
| predicted target | amplicon | averaged z-score | ATP luminescence, replicate 1 | ATP luminescence, replicate 2 |
| --- | --- | --- | --- | --- |
| S6k (Ribosomal protein S6 kinase) | DRSC11276 | -0.137 | 96035 | 76282 |
| S6k (Ribosomal protein S6 kinase) | DRSC36709 | 0.575 | 87560 | 90905 |

The list itself, from the first entry:
| predicted target | amplicon | averaged z-score | ATP luminescence, replicate 1 | ATP luminescence, replicate 2 |
| --- | --- | --- | --- | --- |
| S6k (Ribosomal protein S6 kinase) | DRSC11276 | -0.137 | 96035 | 76282 |
| S6k (Ribosomal protein S6 kinase) | DRSC36709 | 0.575 | 87560 | 90905 |
| comt (comatose) | DRSC25218 | -0.255 | 86102 | 75673 |
| comt (comatose) | DRSC33298 | 0.0194 | 85499 | 72955 |
| comt (comatose) | DRSC33299 | 0.0704 | 69344 | 75690 |
| Snap25 (Synaptosomal-associated protein 25kDa) | DRSC21228 | -0.137 | 97853 | 76530 |
| Snap25 (Synaptosomal-associated protein 25kDa) | DRSC21236 | -0.412 | 74712 | 70836 |
| Snap25 (Synaptosomal-associated protein 25kDa) | DRSC41248 | -0.0143 | 68366 | 75261 |
| bur (burgundy) | DRSC03163 | -0.926 | 65211 | 57528 |
| bur (burgundy) | DRSC41161 | -0.302 | 59114 | 72453 |
| hpo (hippo) | DRSC06065 | -0.206 | 1.01e5 | 71848 |
| hpo (hippo) | DRSC36310 | -0.267 | 69819 | 74705 |
| hpo (hippo) | DRSC36871 | 0.128 | 82363 | 82225 |
| Icmt (Isoprenylcysteine carboxyl methyltransferase) | DRSC09834 | 0.0696 | 98968 | 85205 |
| Icmt (Isoprenylcysteine carboxyl methyltransferase) | DRSC39884 | -0.0139 | 76903 | 79789 |
| Icmt (Isoprenylcysteine carboxyl methyltransferase) | DRSC41166 | 0.178 | 78417 | 80956 |
| pic (piccolo) | DRSC16639 | 4.21 (active) | 1.80e5 | 1.59e5 |
| pic (piccolo) | DRSC31603 | 4.29 (active) | 1.81e5 | 1.29e5 |
| pic (piccolo) | DRSC31604 | 4 (active) | 1.39e5 | 1.54e5 |
| mahj (mahjong) | DRSC04053 | 1.55 (active) | 84815 | 1.19e5 |
| mahj (mahjong) | DRSC32025 | 2.3 (active) | 1.30e5 | 1.16e5 |
| mahj (mahjong) | DRSC32026 | 1.75 (active) | 97144 | 1.13e5 |
| Galphaq (G protein alpha subunit q) | DRSC07432 | -0.11 | 89190 | 72894 |
| Galphaq (G protein alpha subunit q) | DRSC25341 | -0.266 | 75518 | 69292 |
| Galphaq (G protein alpha subunit q) | DRSC41220 | -0.0437 | 72603 | 74524 |
| Cyt-c1 (Cytochrome c1) | DRSC10447 | -0.307 | 81549 | 79493 |
| Cyt-c1 (Cytochrome c1) | DRSC29221 | -0.0397 | 78274 | 75776 |
| Cyt-c1 (Cytochrome c1) | DRSC41190 | -0.323 | 65645 | 75153 |
| Eip74EF (Ecdysone-induced protein 74EF) | DRSC23794 | -0.21 | 1.00e5 | 72294 |
| Eip74EF (Ecdysone-induced protein 74EF) | DRSC40711 | -0.342 | 79892 | 61026 |
| Atg3 (Autophagy-related 3) | DRSC21758 | 0.615 | 1.11e5 | 91893 |
| Atg3 (Autophagy-related 3) | DRSC29687 | -0.294 | 75295 | 72706 |
| Atg3 (Autophagy-related 3) | DRSC41157 | -0.315 | 61558 | 73735 |
| br (broad) | DRSC25765 | 0.17 | 79052 | 86479 |
| br (broad) | DRSC40672 | 0.78 | 1.02e5 | 87440 |
| beta-PheRS (Phenylalanyl-tRNA synthetase, beta-subunit) | DRSC15859 | 0.923 | 1.03e5 | 98728 |
| beta-PheRS (Phenylalanyl-tRNA synthetase, beta-subunit) | DRSC26218 | 0.689 | 92346 | 89190 |
| beta-PheRS (Phenylalanyl-tRNA synthetase, beta-subunit) | DRSC41194 | -0.191 | 64216 | 74884 |
| Hel25E (Helicase at 25E) | DRSC28348 | 4.19 (active) | 84026 | 1.87e5 |
| Hel25E (Helicase at 25E) | DRSC30679 | 7.87 (active) | 2.05e5 | 2.22e5 |
| Hel25E (Helicase at 25E) | DRSC30680 | 7.39 (active) | 2.46e5 | 1.78e5 |
| Stlk (Ste20-like kinase) | DRSC37359 | -0.0963 | 95619 | 76316 |
| Stlk (Ste20-like kinase) | DRSC39268 | -0.299 | 69687 | 68555 |
| Stlk (Ste20-like kinase) | DRSC41249 | -0.0963 | 65434 | 72620 |
| Orp8 (Oxysterol-binding protein-related protein 8) | DRSC15712 | 0.86 | 1.09e5 | 90219 |
| Orp8 (Oxysterol-binding protein-related protein 8) | DRSC28849 | -0.161 | 79926 | 64919 |
| Orp8 (Oxysterol-binding protein-related protein 8) | DRSC41185 | 0.0632 | 72997 | 82928 |
| AsnS (Asparagine synthetase) | DRSC11468 | 1.96 (active) | 1.21e5 | 1.08e5 |
| AsnS (Asparagine synthetase) | DRSC41149 | 1.09 | 87960 | 1.02e5 |
| AsnS (Asparagine synthetase) | DRSC41150 | 1.74 (active) | 1.07e5 | 1.05e5 |
| LeuRS (Leucyl-tRNA synthetase) | DRSC00581 | 1.54 (active) | 1.36e5 | 81179 |
| LeuRS (Leucyl-tRNA synthetase) | DRSC32059 | 1.92 (active) | 1.28e5 | 1.02e5 |
| LeuRS (Leucyl-tRNA synthetase) | DRSC32060 | 1.5 | 97767 | 95863 |
| Atg16 (Autophagy-related 16) | DRSC15052 | 0.959 | 1.25e5 | 89790 |
| Atg16 (Autophagy-related 16) | DRSC15300 | -0.154 | 76873 | 67200 |
| Atg16 (Autophagy-related 16) | DRSC41179 | -0.135 | 68971 | 72911 |
| Buffy | DRSC05957 | 0.249 | 87648 | 97201 |
| Buffy | DRSC41160 | -0.255 | 65262 | 70476 |
| Pgm1 (Phosphoglucose mutase 1) | DRSC10490 | 0.0614 | 74541 | 71351 |
| Pgm1 (Phosphoglucose mutase 1) | DRSC28517 | -0.302 | 77251 | 72620 |
| Pgm1 (Phosphoglucose mutase 1) | DRSC40453 | -0.0892 | 83529 | 74455 |
| Atg18b (Autophagy-related 18b) | DRSC03108 | -0.407 | 87734 | 68263 |
| Atg18b (Autophagy-related 18b) | DRSC28594 | -0.0746 | 82156 | 72688 |
| Atg18b (Autophagy-related 18b) | DRSC41204 | -0.29 | 57871 | 76143 |
| EndoB (Endophilin B) | DRSC07345 | 0.717 | 1.09e5 | 83455 |
| EndoB (Endophilin B) | DRSC36301 | 0.186 | 83803 | 82051 |
| Atg13 (Autophagy-related 13) | DRSC16228 | -0.109 | 83117 | 93227 |
| scf (supercoiling factor) | DRSC08735 | 0.0257 | 83632 | 81041 |
| scf (supercoiling factor) | DRSC41243 | 0.00543 | 72603 | 75038 |
